The values are deposited in ChEMBL (CHEMBL3988442, “University of Dundee, Small-Polar-MMV Screening Library” (2021)).

By UniProt entry, the sequences of proteins in these tests, tags left out. Residues count along the entry.
UniProt P9WNZ1, whole entry: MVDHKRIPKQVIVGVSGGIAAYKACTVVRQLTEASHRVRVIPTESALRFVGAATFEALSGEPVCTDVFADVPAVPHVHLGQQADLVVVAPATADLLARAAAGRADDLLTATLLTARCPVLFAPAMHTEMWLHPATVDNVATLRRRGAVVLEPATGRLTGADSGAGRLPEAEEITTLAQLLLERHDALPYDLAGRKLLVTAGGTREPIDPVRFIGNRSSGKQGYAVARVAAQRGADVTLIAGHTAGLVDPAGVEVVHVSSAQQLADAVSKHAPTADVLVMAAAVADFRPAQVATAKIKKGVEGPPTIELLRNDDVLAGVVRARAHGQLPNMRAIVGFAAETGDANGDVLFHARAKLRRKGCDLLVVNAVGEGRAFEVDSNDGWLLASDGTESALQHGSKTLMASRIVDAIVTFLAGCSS
UniProt I6X8D2, whole entry: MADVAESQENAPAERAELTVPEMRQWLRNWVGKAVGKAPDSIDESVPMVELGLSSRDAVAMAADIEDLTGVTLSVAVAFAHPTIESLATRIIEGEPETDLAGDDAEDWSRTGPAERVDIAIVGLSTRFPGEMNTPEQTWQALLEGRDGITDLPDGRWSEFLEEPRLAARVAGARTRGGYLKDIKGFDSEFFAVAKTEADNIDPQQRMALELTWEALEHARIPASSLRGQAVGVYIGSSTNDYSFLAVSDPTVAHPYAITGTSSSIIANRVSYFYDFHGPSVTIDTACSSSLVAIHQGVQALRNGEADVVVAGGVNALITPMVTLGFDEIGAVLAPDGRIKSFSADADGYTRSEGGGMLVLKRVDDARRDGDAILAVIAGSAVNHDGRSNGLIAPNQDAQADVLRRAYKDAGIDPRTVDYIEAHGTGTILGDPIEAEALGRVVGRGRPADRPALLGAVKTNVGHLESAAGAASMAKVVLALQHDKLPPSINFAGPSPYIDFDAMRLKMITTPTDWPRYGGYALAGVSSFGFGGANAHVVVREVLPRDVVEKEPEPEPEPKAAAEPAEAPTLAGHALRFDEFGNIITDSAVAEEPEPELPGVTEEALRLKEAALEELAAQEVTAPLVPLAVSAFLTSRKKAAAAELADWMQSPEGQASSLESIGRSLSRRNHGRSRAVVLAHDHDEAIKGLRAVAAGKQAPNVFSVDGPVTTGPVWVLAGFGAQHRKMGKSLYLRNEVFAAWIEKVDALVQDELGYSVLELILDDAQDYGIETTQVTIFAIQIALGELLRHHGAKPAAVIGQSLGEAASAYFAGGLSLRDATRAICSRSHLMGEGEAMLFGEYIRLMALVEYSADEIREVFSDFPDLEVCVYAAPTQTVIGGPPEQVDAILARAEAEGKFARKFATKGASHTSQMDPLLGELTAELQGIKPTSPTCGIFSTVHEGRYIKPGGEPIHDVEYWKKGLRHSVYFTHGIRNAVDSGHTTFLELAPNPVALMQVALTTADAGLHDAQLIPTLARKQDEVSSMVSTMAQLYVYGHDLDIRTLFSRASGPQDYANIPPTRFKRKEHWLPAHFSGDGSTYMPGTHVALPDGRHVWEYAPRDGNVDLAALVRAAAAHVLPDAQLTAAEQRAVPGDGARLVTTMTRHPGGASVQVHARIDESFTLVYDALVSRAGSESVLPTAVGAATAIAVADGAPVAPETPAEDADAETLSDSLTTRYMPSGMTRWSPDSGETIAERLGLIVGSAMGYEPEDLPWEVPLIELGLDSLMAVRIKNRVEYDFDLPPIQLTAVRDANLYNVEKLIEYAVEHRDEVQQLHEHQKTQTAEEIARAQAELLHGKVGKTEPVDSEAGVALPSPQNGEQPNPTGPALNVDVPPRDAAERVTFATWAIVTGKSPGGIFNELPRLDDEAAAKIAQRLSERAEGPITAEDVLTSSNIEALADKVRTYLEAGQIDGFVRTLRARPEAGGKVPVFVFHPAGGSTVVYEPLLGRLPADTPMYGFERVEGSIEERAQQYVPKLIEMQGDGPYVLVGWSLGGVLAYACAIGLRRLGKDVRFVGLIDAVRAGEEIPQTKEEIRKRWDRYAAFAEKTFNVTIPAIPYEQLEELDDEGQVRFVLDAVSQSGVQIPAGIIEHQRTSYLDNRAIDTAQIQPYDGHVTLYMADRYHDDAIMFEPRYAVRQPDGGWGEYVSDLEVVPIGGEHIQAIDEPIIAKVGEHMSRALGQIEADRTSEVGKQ
UniProt P9WPC5, whole entry: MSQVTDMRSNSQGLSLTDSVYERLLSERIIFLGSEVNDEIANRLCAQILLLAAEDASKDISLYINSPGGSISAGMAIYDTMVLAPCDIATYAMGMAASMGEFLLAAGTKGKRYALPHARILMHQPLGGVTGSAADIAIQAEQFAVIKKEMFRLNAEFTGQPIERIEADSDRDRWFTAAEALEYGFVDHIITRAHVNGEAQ
UniProt P9WPC3, whole entry partner: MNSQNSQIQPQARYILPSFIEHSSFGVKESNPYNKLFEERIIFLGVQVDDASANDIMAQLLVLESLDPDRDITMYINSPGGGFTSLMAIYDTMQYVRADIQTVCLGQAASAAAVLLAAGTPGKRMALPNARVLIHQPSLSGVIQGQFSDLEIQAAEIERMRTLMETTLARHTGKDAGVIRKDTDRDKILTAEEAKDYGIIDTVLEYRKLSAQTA
UniProt A4I591, 1-473: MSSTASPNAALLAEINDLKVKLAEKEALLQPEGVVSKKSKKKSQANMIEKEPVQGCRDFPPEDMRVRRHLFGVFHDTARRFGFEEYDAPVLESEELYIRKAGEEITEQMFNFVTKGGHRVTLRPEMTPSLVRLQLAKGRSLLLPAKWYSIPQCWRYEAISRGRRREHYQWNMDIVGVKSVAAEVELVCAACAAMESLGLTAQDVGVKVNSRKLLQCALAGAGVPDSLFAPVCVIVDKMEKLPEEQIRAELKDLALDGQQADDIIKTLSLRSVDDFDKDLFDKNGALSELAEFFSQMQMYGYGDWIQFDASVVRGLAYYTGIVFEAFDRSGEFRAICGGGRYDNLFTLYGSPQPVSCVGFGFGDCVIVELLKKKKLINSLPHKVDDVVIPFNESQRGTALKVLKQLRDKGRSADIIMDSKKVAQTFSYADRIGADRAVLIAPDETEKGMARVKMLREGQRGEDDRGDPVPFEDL
UniProt P9WFT3, whole entry: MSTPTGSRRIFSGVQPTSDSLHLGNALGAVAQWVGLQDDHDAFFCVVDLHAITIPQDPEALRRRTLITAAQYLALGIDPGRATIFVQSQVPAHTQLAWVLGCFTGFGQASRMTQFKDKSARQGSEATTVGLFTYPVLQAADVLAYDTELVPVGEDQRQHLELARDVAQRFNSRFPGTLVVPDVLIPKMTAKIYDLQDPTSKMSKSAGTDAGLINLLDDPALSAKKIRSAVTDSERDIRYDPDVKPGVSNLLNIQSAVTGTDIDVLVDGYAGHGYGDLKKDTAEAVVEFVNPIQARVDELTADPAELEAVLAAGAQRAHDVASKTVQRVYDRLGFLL

A: 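Coenzyme A biosynthesis protein CoaBC, Mycobacterium tuberculosis (UniProt P9WNZ1). Enzyme assay of CoaBC with a phosphate dye (Biomol Green) read at 650 nm. Compounds at 30 µM. Higher reads as stronger inhibition, judged from the few compounds that gave an IC50. Most strong results did not repeat in a second test. Of about 67,000 compounds tested this way, about 40 (0.06%) reached 50% or more in at least one test.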
B: 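Polyketide synthase Pks13, Mycobacterium tuberculosis (UniProt I6X8D2). Enzyme assay of the thioesterase domain of polyketide synthase 13; the read-out is not stated. Tested at 30 µM. The record gives no direction; the compounds picked for IC50 retests had high values, so higher reads as stronger inhibition. About 67,000 compounds were tested under these conditions; 0.46% (about 300) showed 50% or more at least once.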
C: 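ClpP1P2, Mycobacterium tuberculosis (UniProt P9WPC5 and UniProt P9WPC3). Protease assay of ClpP1P2, read by the AMC dye that it sets free. Compounds at 50 µM. Higher reads as stronger inhibition, judged from the few compounds that gave an IC50. Most other retested compounds had strongly negative values. Size under these conditions: about 69,000 compounds, about 10 of them at 50% or above in at least one test.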
D: 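Assay of Toxoplasma gondii numbers, read through their beta-galactosidase reporter with a colour substrate. Tested at 10 µM. The record gives no direction; the compounds picked for IC50 retests had high values, so higher reads as fewer parasites. Of about 67,000 compounds tested this way, about 260 (0.38%) reached 50% or more in at least one test.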
E: 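Enzyme assay of histidyl-tRNA synthetase; the read-out is not stated. Target: Histidine-tRNA ligase, Leishmania infantum (UniProt A4I591). Concentration: 30 µM. Higher reads as stronger inhibition (inferred: compounds with an IC50 in retests scored well above the rest). The assay is labelled LdHisRS but filed under L. infantum. Size under these conditions: about 69,000 compounds, about 410 of them at 50% or above in at least one test.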
F: 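Enzyme assay of tryptophanyl-tRNA synthetase; the read-out is not stated. Target: Tryptophan-tRNA ligase, Mycobacterium tuberculosis (UniProt P9WFT3). Concentration: 10 µM. Direction is not recorded; retested compounds ran higher, which suggests that high means inhibition. About 65,000 compounds were tested under these conditions; 0.098% (about 64) showed 50% or more at least once.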

Results are given as percent effect. The record does not define 0% and 100%; most values in the screen are far below 50% and negative numbers occur (in some assays of this library far below -100). The compounds are a random part of those screened. A dash means the value is not listed here; it may have been measured.

structure	A	B	C	D	E	F
O=C(Cc1cccc(F)c1F)NS(=O)(=O)c1ccc(Cl)cn1	7.54	-18.69	-2.263	5.52	9.821	-2.414
CNc1cccc(C2CCCN(Cc3ncc[nH]3)C2)n1 (centres undefined)	0.3708	1.207	-1.714	5.95	8.966	-6.275
Cc1ncnc2c1CCN(C(=O)c1ccncc1F)CC2	3.553	-6.216	-2.498	-	11.76	-6.667
O=C(Nc1cccc(CN2CCC(CO)CC2)c1)c1cc(Cl)c[nH]1	-9.208	5.141	0.2537	-10.45	-22.34	-0.7656
COCC1CC2(CCN(CC3CC3)CC2)CN1c1ncccn1 (centres undefined)	-15.31	-26.14	-6.261	-	8.571	-6.184
O=C(c1ccco1)N1CCC[C@]2(C[C@H](Oc3ncccc3F)CO2)C1	2.343	-7.814	-19.49	-38.98	0	-3.604
O=C(O)C(F)(F)F.O=C(O)C(F)(F)F.O=C(O)C(F)(F)F.c1ccc(NCc2cn3c(n2)CN(Cc2cccnc2)CC3)nc1	-	-	-	-0.5917	-	-
CC(NCc1ccnc(OC2CCC2)c1)c1cnn(C)c1 (centres undefined)	6.149	-8.705	-3.723	-0.5942	1.176	2.574
COc1ccc(OC)c(-c2cc(C(=O)NCC3(CO)CC3)n(C)n2)c1	4.175	-11.03	-4.413	-4.204	9.333	-4.736
COCCN1CCC(c2nc3c([nH]2)CCCNC3=O)CC1	9.307	-18.97	-11.22	-37.16	6.557	-0.3221
Cc1cccc(CN2C[C@@H](NC(=O)C3CCC3)[C@H]3COC[C@H]32)n1	-4.421	-33.29	1.978	-	13.27	2.629
O=C(O)c1csc(S(=O)(=O)N2CCCc3ccc(F)cc32)c1	-29.02	-7.098	-3.678	1.652	18.45	4.796
Cc1nnc(CN2CCCCC2c2nc(-c3ccccc3)no2)s1 (centres undefined)	3.2	-17.77	0.2436	-9.073	2.564	-3.488
COCC(=O)NCCSCCOc1cccc(Br)c1	-2.703	10.66	9.262	-15.95	-8.602	-2.564
CC(C)Cn1cncc1CNC(=O)c1cccc(CC2CCNCC2)c1	-2.991	-25.05	-17.33	-10.85	25.64	7.923
COc1c(C2CCCN2Cc2nnc(C3CC3)o2)c(C)nn1C (centres undefined)	8.032	-14.91	-5.886	-7.821	4.478	-2.093
CC(C)(C)n1ncc2c1CCCC2NCc1cccc2c1OCCO2 (centres undefined)	7.506	3.165	7.018	7.078	16.52	-4.984
O=C(C1CCOc2ccccc21)N1CCOc2cccc(F)c21 (centres undefined)	-0.3984	-6.615	-5.033	-3.255	19.18	-3.343
O=C(O)C(F)(F)F.O=C(O)C(F)(F)F.[H][C@]12C[C@H](CN(C)C)O[C@@]1([H])CN(Cc1ccc(OC)cc1)C2	-	-	-	0.5547	-	-
O=C(O)C(F)(F)F.O=C(O)C(F)(F)F.[H][C@@]12CN(Cc3ccncc3)C[C@]1([H])C(=O)N(Cc1ccc(OC)cc1)C2	-	-	-	-16.87	-	-
COCC1(CNC(=O)Nc2cc(F)ccc2OC)CCCC1	-2.991	7.161	-6.782	-1.512	6.838	-8.066
Cc1nccc(-c2ccccc2)c1C(=O)N1CCC2(CCCO2)CC1	-5.95	-16.82	2.819	10.07	12.68	-1.966
Cc1cccc(C)c1Nc1noc2c1CN(C(=O)c1ccn(C)n1)CC2	-23.49	-13.31	-15.57	0.5549	-2.797	-2.676
COc1ccc(CN2CCN(C(C)c3nc(C4CC4)no3)CC2)cc1 (centres undefined)	2.332	5.08	3.118	-25.49	-14.89	2.598
COCC(=O)NCc1cc(=O)n2c(n1)CN(Cc1ccccc1)CCC2	3.704	-	-9.59	-	13.64	-
CSC1(CNC(=O)NC(C)Cc2cccc(F)c2)CCOCC1 (centres undefined)	0.1255	-8.066	-17.52	9.414	3.39	-4.022
CC(C)NC(=O)N1CCN(CCn2cccn2)c2ncccc2C1	1.235	-3.267	-22.04	-	4.545	-
Cc1nc(N(C)Cc2cccc(O)c2)nc2cc(S(C)(=O)=O)ccc12	-	-181.9	-2.659	6.393	19.17	0.2064
Cc1ccc(C(=O)N2CCc3ncnc(-c4cnn(C)c4)c3CC2)o1	-3.457	-14.34	-15.26	5.719	0	-8.258
CSC(C)C(=O)NCc1ccnc(N2CCN(C)CC2)c1 (centres undefined)	5.703	-10.7	-26.07	-3.417	19.64	-6.089
Cn1cnc(S(=O)(=O)NCCC(O)c2ccc3c(c2)OCO3)c1 (centres undefined)	0.7663	-26.72	-2.116	-4.211	18.18	2.843
O=C(O)C(F)(F)F.[H][C@@]12COC[C@]1(COCc1cccnc1)CN(C(=O)Cc1cccs1)C2	-	-	-	2.483	-	-
c1cc(CNc2ccc(-c3nc(C4CC4)no3)cn2)no1	-2.415	-3.258	-1.282	-0.7747	-3.03	-5.818
Cc1cc(CN2CCC(c3cc(Cc4ccccc4)n[nH]3)CC2)[nH]n1	9.693	-11.62	0.5707	12.78	27.45	-0.08223
COc1ccc(CN2CC[C@@]3(C2)[C@H](O)CN(C)S3(=O)=O)cc1F	-1.595	-2.609	-6.275	5.441	-6.186	-

Repeated from the top, 3 entries:

{"structure": "O=C(Cc1cccc(F)c1F)NS(=O)(=O)c1ccc(Cl)cn1", "A": 7.54, "B": -18.69, "C": -2.263, "D": 5.52, "E": 9.821, "F": -2.414}
{"structure": "CNc1cccc(C2CCCN(Cc3ncc[nH]3)C2)n1", "stereo": "centres undefined", "A": 0.3708, "B": 1.207, "C": -1.714, "D": 5.95, "E": 8.966, "F": -6.275}
{"structure": "Cc1ncnc2c1CCN(C(=O)c1ccncc1F)CC2", "A": 3.553, "B": -6.216, "C": -2.498, "E": 11.76, "F": -6.667}